Whole data set: some 33,000 sequences, median “E-score (-0.5 to 0.5)” near -0.015, cut for the highest 2% near 0.3. This is one part of the list.
molecular target: T1, Abf1 (UniProt P14164); test: PBM E-score (8-mer binding enrichment) (E-score (-0.5 to 0.5)); higher = stronger / more preferred TF binding; details: protein concentration: 200 nM; construct: GST-full length
T1 sequence: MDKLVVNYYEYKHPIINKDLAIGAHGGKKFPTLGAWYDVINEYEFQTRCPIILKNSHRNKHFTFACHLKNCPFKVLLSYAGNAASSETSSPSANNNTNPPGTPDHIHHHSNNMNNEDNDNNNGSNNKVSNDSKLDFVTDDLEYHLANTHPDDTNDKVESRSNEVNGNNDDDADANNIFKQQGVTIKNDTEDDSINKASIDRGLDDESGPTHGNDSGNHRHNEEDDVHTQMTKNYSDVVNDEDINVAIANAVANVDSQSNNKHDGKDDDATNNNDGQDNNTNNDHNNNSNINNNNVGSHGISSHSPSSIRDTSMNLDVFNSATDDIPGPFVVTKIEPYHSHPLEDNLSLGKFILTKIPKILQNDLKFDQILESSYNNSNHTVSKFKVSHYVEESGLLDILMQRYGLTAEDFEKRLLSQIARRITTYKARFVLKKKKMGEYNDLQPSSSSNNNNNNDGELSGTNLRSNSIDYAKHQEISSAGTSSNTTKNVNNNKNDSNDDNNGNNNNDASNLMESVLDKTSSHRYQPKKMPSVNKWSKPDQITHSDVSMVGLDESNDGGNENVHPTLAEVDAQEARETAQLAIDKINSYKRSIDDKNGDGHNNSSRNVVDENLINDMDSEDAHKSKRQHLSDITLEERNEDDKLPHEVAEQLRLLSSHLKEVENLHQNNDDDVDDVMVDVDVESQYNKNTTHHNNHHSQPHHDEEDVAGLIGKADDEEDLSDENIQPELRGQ
In short: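 For each ungapped eight-base word taken together with its reverse complement, the Universal PBM Analysis Suite assigned an E-score. Binding data came from GST-tagged yeast transcription factors, applied at about 100-200 nM, on universal all-10-mer Agilent arrays made double-stranded by primer extension. Fluorescent anti-GST marked bound protein, and scans were normalised with masliner.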

Sequence	PBM E-score
AGCGTCTA	-0.0976
GTCCGTCA	0.2
ACTGGACA	0.0429
ACTACTCT	-0.0302
GACCGAGC	-0.244
ACGTGACA	0.355
ATGAAACA	-0.133
TACAACTA	-0.0372
AGCAGCAC	-0.0899
GACCAGCC	-0.19
CTGTCGTC	0.289
AGGGGTCG	-0.231
CTGCTGAA	-0.0624
AGTGTCAC	0.174
AACACTAT	0.162
GGATGACC	0.0842
AGAGTAAG	-0.0979
CCGTGCAA	0.334
CGTTTTAA	0.105
ACCAAAGG	-0.266
CCCTGGTC	-0.249
CCCAATGC	-0.262

Sequence	PBM E-score
ACCTGAAT	0.125
GCGCGGAC	0.0773
GTAATTTA	0.0741
CGGATGGC	0.0675
ACATTTTA	0.258
GCGTTCGA	0.139
CTAACTCA	-0.0437
ATCGAACA	0.0596
CTAGATTC	-0.0799
AACGGTTG	-0.0453
ACTCCACA	-0.0769
ATTCGGGC	-0.0543
CTACTCAC	-0.00744
AAAGTGAA	-0.0183
TCCCTAAA	0.0987
GAGTATAA	0.0821
AGACGGAA	0.151
ACGAATTA	0.236
CCTGGTGA	0.00561
AAGTGACT	0.328
AACCCGAC	-0.0287
CAATCTCC	-0.166

Sequence	PBM E-score
CGGGCGGC	-0.294
AGCCCAAA	-0.0828
GGCGCAAA	-0.191
CCCGCCAA	-0.14
GCCAGAGC	-0.317
CGTGGGTC	0.0419
AGAGGGAC	-0.137
ATGTTTCC	-0.131
CGAAGCGA	0.103
AAACTCAA	0.0218
ACAGCAGT	-0.0959
AGCTCGCG	-0.0339
ACGCCGAG	-0.0995
AGGACGCG	-0.102
CACGACCG	-0.0182
GAGTCGGA	-0.0845
GGTGCAAC	-0.0993
ACGTCTGC	-0.0123
ACAAGTTA	0.0755
AAAAGACG	0.0107
ATTATCTC	0.119
CAGTAGAG	-0.209

Sequence	PBM E-score
CTGGCAAG	-0.163
AGCTTATG	0.0987
ATTGTTAC	0.111
TAAGGAAA	-0.0606
CGGTTCGA	0.0347
AGAGCCGG	-0.245
CCGATTCC	-0.146
CCATCGGG	-0.121
AGGTGCAG	-0.0891
AGTTGTGC	-0.108
GGCTGGTA	-0.0983
GATCCACC	0.0497
AACGTGGT	0.12
AGAGCCCA	-0.0846
GAATTCTC	0.164
ATACTGGC	-0.0373
GAAAGCCC	0.0394
GCTCATAC	-0.069
ATGAAGAA	0.0138
CCTTAAAA	0.0216
ATCCATAG	-0.155
CCAGTATA	-0.0548

Some values from the entries so far:
ACCTGAAT – PBM E-score: 0.125
AGCTCGCG – PBM E-score: -0.0339
CGGGCGGC – PBM E-score: -0.294
AAGTGACT – PBM E-score: 0.328
AGAGCCGG – PBM E-score: -0.245
ATTATCTC – PBM E-score: 0.119

(list continues)

Sequence	PBM E-score
ATCAAGCA	0.123
TATGACGA	0.261
CTGCGGTC	-0.148
AGTCTATG	-0.185
TCATCCGA	0.219
ACGATATA	0.289
CACAGAAG	-0.124
CCTCCAAC	0.0192
ATATAAGC	0.154
TAATGGGA	-0.0779
ACATGCTC	0.0343
TAGCAGCA	0.0823
CCGACGCG	-0.0747
CCGTGCCA	0.108
GGCAAAAC	-0.0611
CACGAAAC	0.272
GCAATACC	0.215
GCTGGTGA	0.147
CCTAAGCG	-0.0394
AGGACAAC	-0.0182
GCGACCTA	0.00691
GAAATTTA	0.261

Reference: the supplement of paper PMC3334620
